Results from publication PMC5651247.
Results are given in words; binding and its absence hold for the method and conditions named. For part of these data: Binding seen in cells or lysates may run through a third protein. Blank lines part the entries; values can stand above or below the binder they belong to.

Experiments:
Conditions in all cases: remark: other sources report otherwise
[1] = target: T1, Factor H-related-5 (FHR-5), serum-derived (human (endogenous in serum)), Q9BXR6; assay: co-IP; from 200 µL human serum of healthy donors with zero or two copies of CFHR1, without prior purification; anti-FH.02 (FHR-1), anti-FHR-2 or anti-FHR-5.1 on RM-19 Sepharose, PBS with 0.1% Tween-20, 0.1% BSA, 10 mM EDTA, o/n at 4°C; Western blot with anti-FHR-2.1 and anti-FHR-5.4
T1 chain: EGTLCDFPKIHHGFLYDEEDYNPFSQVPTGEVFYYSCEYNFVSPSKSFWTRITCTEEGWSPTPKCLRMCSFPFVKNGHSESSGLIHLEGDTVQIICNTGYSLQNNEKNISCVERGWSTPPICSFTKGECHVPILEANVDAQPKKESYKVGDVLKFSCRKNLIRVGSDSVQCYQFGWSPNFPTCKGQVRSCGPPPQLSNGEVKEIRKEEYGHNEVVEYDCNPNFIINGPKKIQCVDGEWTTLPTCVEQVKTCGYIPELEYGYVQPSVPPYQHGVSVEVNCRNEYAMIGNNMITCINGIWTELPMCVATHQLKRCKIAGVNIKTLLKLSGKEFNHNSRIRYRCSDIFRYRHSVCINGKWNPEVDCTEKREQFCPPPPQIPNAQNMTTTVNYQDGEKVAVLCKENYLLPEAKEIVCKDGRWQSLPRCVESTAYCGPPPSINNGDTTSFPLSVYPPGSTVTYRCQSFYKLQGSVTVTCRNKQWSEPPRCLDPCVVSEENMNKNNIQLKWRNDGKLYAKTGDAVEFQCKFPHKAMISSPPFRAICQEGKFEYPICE

[2] = target: T2, Factor H-related-1 (FHR-1), serum-derived (human (endogenous in serum)), Q03591; assay: as above
T2 chain: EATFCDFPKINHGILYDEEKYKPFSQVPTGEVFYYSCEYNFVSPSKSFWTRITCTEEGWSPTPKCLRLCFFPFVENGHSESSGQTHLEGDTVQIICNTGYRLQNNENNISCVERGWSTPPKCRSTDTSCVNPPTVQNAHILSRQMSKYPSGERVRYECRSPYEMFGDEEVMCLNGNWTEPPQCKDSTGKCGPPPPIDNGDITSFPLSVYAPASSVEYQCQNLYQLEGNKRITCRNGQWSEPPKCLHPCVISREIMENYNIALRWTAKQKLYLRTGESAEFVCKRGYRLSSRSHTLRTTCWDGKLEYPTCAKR

[3] = target: T3, Factor H-related-2 (FHR-2), serum-derived (human (endogenous in serum)), P36980; assay: as above
T3 chain: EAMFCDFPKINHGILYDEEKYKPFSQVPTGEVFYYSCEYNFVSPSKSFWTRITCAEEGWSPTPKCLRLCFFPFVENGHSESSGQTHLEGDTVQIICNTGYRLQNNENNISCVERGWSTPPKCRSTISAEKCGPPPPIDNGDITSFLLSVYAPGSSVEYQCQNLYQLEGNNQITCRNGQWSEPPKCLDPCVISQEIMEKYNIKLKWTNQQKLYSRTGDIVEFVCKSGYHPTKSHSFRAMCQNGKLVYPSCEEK

[4] = target: T1, Factor H-related-5 (FHR-5), …; assay: heparin affinity chromatography with ELISA of the fractions; 150 µL untreated serum (NHS or pooled CFHR3/CFHR1-deficient) in 10 mM NaPO4 pH 7.4 on a 1 mL HP Heparin column, linear gradient 0 to 2 M NaCl; dimers in the fractions measured by the dimer ELISAs
[5] = target: T1, Factor H-related-5 (FHR-5), …; assay: sucrose gradient centrifugation; pooled human serum (NHS or CFHR3/CFHR1-deficient), diluted 1:2 in PBS, on 5–32.9% (w/v) sucrose in PBS, 20 h at 160,000g, 24 fractions; FHRs immunoprecipitated from the fractions with anti-FHR-5.5 and seen by Western blot; IgM, IgG and albumin as size references

binding [1]: no binding
B1: Factor H-related-2 (FHR-2), serum-derived, P36980 19-270 (protein)
chain: T3 chain

binding [2]: no binding | binding [3]: no binding
B2: Factor H-related-5 (FHR-5), serum-derived, Q9BXR6 19-569 (protein)
chain: T1 chain

binding [4]: no binding | binding [1]: no binding | binding [5]: no binding
B3: Factor H-related-1 (FHR-1), serum-derived, Q03591 19-330 (protein)
chain: T2 chain
